{"source": "paper PMC8799878", "about": "(Acta Pharmaceutica Sinica. B, 2021)", "system": "Mia PaCa-2 cells", "assay": "In vitro antiproliferative assay", "format": "cell-based", "conditions": "Homo sapiens, MIA PaCa-2, 72 h, read-out: Mia PaCa-2 (IC50), CCK8 method, 72 h"}
{"smiles": "O=C(CCCN1CCC2(CC1)C(=O)NCN2c1ccccc1)c1ccc(F)cc1", "note": "[Compound 9, Spiperone, reference compound]", "values": [{"measurement": "IC50", "result": "> 100", "unit": "µM"}]}
